This is an account of results in publication doi:10.1101/2020.02.10.941757.

The chains behind the UniProt entries cited, without tags or fusion partners.
UniProt Q15436: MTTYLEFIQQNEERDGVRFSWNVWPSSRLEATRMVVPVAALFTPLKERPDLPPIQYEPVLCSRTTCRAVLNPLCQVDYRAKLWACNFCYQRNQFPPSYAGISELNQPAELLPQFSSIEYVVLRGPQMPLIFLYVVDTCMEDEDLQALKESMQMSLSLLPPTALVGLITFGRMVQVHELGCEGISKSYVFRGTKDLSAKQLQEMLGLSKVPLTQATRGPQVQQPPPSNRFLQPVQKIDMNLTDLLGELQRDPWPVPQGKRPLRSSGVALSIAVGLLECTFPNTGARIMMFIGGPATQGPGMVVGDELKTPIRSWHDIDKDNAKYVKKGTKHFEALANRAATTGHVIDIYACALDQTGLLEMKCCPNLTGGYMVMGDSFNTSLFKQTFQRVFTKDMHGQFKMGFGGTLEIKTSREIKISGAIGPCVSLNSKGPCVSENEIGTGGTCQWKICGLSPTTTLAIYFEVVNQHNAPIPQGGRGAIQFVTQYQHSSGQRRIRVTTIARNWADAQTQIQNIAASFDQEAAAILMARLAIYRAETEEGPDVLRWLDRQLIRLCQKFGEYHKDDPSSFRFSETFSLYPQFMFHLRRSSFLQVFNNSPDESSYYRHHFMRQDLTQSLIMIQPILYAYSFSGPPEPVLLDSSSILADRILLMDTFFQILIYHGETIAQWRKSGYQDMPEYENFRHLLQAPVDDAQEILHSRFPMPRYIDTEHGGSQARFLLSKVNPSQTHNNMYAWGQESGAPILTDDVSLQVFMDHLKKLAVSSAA

This assay concerns the target T1, GFP-tagged wildtype DYRK3 (GFP-DYRK3 (WT)) (UniProt O43781).
T1 sequence: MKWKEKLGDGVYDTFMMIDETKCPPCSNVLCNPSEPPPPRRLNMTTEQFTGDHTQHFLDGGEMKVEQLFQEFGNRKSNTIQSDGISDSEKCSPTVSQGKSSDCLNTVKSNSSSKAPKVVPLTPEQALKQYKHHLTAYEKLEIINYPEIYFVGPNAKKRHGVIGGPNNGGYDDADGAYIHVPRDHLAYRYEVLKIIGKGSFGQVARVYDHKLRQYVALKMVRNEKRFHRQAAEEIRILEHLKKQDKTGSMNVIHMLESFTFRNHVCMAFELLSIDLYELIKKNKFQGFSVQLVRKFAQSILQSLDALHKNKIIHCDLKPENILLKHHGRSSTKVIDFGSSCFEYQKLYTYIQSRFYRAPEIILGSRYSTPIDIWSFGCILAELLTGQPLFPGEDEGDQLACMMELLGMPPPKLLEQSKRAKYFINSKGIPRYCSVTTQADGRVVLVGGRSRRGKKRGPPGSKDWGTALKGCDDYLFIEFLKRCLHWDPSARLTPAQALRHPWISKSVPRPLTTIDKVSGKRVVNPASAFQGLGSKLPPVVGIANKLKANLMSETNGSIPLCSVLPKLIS
Put plainly: co-IP.

No constants are given. Whether binding was seen depends on the method and setting. Binding seen in cells or lysates may run through a third protein. Some entries that bind do so weakly or less than the wild type. Tags and fused reporters may be left off the sequences shown.

As for Sec23A (from UniProt Q15436 1-765), the binding result is given as “binds”.
